At least one structure is not confirmed: it was looked up by name or label, or the drawing left a doubt.
Columns and labels:
[1] = test system: Phosphorylation of Sp1 and H2AX; assay: Immunoblot of H2O2-induced Sp1 and H2AX phosphorylation in NHDFs pretreated with wortmannin or KU55933; type: cell-based, human
ATM = ATM (Homo sapiens, UniProt Q13315); settings: wortmannin at 20 μM; Abraham 2004; cited from earlier work
ATR = ATR (Homo sapiens, UniProt Q13535); settings: wortmannin at 20 μM; Abraham 2004; cited from earlier work

Chains of the proteins cited; added tags and fusions are not shown. Lines headed by an entry give the natural chain unless they say otherwise; changes in a name come on top.
UniProt Q13315: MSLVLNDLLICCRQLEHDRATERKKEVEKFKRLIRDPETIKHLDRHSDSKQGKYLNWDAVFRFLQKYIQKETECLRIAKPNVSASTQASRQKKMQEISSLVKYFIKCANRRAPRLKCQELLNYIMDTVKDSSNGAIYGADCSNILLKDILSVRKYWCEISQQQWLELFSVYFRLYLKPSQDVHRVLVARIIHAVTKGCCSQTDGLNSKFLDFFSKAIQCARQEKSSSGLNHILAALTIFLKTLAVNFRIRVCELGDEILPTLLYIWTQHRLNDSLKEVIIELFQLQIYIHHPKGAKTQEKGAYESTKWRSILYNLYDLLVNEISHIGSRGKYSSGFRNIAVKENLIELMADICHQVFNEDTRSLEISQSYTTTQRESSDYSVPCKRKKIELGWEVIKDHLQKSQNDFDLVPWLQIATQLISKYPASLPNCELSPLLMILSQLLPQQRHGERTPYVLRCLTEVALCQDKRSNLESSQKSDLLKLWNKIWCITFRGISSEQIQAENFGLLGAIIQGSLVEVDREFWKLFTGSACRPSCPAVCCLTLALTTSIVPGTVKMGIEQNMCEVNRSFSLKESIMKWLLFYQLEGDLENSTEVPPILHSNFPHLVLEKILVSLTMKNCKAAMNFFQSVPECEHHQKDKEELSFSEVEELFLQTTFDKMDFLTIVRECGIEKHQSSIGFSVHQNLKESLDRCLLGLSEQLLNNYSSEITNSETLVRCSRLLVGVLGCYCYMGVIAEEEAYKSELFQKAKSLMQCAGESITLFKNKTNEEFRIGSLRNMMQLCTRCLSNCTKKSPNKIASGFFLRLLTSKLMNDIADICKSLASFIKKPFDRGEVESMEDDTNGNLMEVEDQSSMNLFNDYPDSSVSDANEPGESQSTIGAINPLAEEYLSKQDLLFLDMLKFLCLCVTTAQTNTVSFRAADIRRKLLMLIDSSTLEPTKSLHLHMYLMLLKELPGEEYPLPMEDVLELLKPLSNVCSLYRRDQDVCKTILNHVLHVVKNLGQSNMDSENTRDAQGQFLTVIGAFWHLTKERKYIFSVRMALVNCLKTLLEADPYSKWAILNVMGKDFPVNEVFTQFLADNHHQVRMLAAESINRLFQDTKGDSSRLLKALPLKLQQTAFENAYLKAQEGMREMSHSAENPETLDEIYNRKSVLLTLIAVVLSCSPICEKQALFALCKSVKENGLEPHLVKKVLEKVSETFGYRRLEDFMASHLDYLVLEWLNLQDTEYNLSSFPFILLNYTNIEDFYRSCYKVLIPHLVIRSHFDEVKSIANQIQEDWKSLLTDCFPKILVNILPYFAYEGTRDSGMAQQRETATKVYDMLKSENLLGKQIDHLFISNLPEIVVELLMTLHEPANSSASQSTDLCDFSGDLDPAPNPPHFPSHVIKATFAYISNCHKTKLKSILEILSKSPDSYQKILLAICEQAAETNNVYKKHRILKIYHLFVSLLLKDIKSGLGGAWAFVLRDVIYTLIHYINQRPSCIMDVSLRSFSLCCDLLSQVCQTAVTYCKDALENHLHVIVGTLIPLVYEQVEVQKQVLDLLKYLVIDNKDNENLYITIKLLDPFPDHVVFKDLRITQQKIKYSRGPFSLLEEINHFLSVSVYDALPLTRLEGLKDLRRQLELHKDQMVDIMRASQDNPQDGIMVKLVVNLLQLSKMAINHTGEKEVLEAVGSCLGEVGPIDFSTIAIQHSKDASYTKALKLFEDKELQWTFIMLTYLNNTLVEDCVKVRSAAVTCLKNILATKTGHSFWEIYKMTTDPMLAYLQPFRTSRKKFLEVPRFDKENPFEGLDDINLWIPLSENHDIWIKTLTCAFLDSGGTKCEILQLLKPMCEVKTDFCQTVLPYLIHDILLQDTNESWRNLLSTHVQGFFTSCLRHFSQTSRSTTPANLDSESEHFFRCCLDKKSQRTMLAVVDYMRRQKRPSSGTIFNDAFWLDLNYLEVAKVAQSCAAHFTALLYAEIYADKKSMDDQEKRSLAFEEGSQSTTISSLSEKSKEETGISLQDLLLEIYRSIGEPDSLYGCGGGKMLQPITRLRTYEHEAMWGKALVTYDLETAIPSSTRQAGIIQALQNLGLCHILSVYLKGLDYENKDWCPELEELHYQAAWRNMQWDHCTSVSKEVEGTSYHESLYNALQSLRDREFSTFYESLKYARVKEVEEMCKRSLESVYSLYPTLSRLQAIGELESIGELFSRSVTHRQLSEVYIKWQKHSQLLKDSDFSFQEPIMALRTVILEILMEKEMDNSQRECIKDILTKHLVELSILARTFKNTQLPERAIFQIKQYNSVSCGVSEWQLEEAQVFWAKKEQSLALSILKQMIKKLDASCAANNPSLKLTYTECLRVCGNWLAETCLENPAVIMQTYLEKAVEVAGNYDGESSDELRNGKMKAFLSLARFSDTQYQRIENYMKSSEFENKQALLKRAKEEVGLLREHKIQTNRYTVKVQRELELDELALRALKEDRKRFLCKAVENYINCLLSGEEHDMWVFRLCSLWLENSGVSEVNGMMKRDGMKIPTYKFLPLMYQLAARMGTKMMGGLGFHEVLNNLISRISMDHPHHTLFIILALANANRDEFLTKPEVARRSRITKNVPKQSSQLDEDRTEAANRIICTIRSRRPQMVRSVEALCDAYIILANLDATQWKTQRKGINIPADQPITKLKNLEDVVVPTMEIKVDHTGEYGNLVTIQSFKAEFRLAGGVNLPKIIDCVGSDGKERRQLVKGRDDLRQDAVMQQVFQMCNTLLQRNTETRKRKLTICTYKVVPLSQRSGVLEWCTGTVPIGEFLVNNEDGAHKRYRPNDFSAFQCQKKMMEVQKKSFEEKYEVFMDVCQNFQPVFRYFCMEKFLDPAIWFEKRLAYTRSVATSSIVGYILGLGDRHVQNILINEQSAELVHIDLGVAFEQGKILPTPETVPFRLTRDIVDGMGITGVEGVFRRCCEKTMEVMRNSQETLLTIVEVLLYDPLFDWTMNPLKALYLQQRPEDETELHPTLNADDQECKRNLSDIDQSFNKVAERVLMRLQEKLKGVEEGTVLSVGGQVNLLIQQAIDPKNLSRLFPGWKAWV
UniProt Q13535: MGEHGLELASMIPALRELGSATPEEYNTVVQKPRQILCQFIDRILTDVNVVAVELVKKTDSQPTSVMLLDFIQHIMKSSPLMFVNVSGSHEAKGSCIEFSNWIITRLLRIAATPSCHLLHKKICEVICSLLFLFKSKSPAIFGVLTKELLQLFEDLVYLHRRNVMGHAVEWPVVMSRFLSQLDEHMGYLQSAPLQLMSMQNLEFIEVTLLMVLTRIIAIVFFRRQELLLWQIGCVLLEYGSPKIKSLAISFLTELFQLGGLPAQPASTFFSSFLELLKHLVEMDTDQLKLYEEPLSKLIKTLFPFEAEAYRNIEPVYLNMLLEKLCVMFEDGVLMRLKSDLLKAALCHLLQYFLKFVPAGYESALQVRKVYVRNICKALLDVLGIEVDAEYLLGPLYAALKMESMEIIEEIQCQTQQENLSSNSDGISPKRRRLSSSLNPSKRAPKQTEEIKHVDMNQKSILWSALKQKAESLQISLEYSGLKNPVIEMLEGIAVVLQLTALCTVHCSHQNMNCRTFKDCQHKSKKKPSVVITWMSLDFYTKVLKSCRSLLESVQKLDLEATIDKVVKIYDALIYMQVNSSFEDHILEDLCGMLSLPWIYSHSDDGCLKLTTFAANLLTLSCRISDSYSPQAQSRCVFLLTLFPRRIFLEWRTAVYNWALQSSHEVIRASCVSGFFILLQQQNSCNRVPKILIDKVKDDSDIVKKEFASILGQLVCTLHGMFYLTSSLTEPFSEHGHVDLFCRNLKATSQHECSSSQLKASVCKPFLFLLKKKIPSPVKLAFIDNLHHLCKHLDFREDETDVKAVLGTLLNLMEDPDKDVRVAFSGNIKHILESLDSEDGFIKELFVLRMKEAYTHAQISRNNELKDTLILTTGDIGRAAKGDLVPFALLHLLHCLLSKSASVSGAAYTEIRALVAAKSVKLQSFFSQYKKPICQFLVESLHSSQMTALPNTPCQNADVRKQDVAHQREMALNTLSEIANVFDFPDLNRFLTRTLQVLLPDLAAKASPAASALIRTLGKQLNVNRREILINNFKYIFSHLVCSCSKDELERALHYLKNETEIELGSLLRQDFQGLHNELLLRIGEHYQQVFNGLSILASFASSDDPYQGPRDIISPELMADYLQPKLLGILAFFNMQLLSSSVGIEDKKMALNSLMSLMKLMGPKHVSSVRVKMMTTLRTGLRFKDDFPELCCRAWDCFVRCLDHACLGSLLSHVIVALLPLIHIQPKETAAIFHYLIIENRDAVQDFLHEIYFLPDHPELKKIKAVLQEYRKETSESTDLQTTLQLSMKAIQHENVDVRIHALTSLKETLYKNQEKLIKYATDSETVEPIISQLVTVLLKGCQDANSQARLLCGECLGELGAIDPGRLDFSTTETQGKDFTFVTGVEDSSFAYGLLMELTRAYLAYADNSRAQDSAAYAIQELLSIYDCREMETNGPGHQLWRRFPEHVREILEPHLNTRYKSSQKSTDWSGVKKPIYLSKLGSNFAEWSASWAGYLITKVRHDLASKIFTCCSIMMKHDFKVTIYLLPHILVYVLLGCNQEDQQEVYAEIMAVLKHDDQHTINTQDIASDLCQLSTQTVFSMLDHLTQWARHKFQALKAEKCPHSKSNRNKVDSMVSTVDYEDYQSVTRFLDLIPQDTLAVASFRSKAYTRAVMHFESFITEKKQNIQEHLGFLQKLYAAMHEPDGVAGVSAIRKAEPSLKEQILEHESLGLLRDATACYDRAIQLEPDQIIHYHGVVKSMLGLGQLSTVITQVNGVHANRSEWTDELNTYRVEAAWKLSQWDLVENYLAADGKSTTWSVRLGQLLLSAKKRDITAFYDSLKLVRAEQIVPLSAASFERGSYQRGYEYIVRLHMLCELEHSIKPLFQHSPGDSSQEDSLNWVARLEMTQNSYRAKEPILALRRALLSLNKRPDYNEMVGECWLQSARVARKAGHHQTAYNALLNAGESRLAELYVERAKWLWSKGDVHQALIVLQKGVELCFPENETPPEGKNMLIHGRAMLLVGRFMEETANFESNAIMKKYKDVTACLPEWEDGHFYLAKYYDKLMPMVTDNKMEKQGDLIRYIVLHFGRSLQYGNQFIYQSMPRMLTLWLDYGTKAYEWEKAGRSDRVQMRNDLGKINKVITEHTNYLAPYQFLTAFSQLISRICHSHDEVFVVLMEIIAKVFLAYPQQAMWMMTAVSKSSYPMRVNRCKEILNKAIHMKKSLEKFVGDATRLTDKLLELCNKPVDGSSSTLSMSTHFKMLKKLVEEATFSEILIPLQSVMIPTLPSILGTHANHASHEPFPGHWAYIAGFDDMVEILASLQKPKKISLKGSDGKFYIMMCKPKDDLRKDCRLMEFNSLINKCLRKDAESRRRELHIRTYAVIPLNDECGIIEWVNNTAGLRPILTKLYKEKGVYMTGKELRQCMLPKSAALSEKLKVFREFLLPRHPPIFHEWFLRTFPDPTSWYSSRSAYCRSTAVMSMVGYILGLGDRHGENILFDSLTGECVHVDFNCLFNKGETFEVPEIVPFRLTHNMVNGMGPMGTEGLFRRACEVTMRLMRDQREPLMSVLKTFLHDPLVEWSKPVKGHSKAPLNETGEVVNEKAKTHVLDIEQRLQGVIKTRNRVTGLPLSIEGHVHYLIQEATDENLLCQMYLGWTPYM

COC[C@H]1OC(=O)c2coc3c2[C@@]1(C)C1=C(C3=O)[C@@H]2CCC(=O)[C@@]2(C)C[C@H]1OC(C)=O [wortmannin, Wortmannin]
H2O2-induced phosphorylation of Sp1 and H2AX ([1]; 200 μM H2O2, pre-treatment with 20 μM wortmannin): reduced but not abolished
Phosphorylation of Sp1 and H2AX in response to H2O2 ([1]; 200 μM H2O2, pretreated with 100 μM wortmannin): not detected
Inhibition of ATM (ATM): inhibits ATM
Inhibition of ATR (ATR): not ATR
